Measured values from PubChem BioAssay AID248 (DTP/NCI, 2004).
The list is a part of this screen's results and no random one: it is rich in T/C values a quarter to a half above the control, in often repeated tests (any T/C) and in doses without a T/C. Other doses and runs of a compound stand elsewhere. T/C is the treated group as % of the vehicle group. Some doses have a count of surviving animals in place of a T/C: the source holds a T/C of zero for them, seemingly a mark for toxic or unscored doses. Some doses without a T/C left all or most animals alive at the check, yet need not have been tolerated: the source hardly ever lists a survival T/C far under the control, and the zero likely stands for such cases as well. Counts of survivors are from the toxicity check (mostly the fifth day) where no day follows; animals may have died later. Schedule codes are those of the source, taken here to give the interval after Q, in days (D) or hours (H), and the number of doses after X. Some schedules carry Z or #; the key to these is not given. Some entries were tested several times; their values stand side by side, smallest first. Some structures stand for samples that the source files as different forms (salt, stereo form or complex); doses refer to the form tested. Where survival is the endpoint, the PubChem record calls one and a half times the control and up active, and a quarter to a half above the control has no call in these data; cut-offs in other NCI protocols can differ.

Test system: L1210 leukemia ip in BDF1 mice, survival T/C
Test: NCI In Vivo Anticancer Drug Screen. Data for tumor model L1210 Leukemia (intraperitoneal) in B6D2F1 (BDF1) mice
Conditions: T/C endpoint: mean survival time, higher T/C = longer survival
[1] = dose: 200.0 mg/kg/injection, schedule: Q01DX009 (ip), vehicle: Klucel (hydroxypropylcellulose) (HPC)
[2] = dose: 400.0 mg/kg/injection, schedule: Q01DX009 (ip), vehicle: Klucel (hydroxypropylcellulose) (HPC)
[3] = dose: 100.0 mg/kg/injection, schedule: Q01DX009 (ip), vehicle: saline with Tween-80
[4] = dose: 200.0 mg/kg/injection, schedule: Q01DX009 (ip), vehicle: saline with Tween-80
[5] = dose: 400.0 mg/kg/injection, schedule: Q01DX009 (ip), vehicle: saline with Tween-80
[6] = dose: 400.0 mg/kg/injection, schedule: Q04DX003 (ip), vehicle: saline with Tween-80
[7] = dose: 400.0 mg/kg/injection, schedule: Q04DX003 (ip), vehicle: saline
[8] = dose: 50.0 mg/kg/injection, schedule: Q01DX009 (ip), vehicle: saline with Tween-80
[9] = dose: 200.0 mg/kg/injection, schedule: Q04DX003 (ip), vehicle: Klucel (hydroxypropylcellulose) (HPC)
[10] = dose: 400.0 mg/kg/injection, schedule: Q04DX003 (ip), vehicle: Klucel (hydroxypropylcellulose) (HPC)
[11] = dose: 200.0 mg/kg/injection, schedule: Q04DX003 (ip), vehicle: saline with Tween-80

Q: Which results are given for `CC(C)N1CCOCC1`?
A: survivor count (dose: 150.0 mg/kg/injection, schedule: Q01DX009 (ip), vehicle: saline with Tween-80): 2 of 6; survivor count (dose: 225.0 mg/kg/injection, schedule: Q01DX009 (ip), vehicle: saline with Tween-80): 0 of 6; survivor count (dose: 335.0 mg/kg/injection, schedule: Q01DX009 (ip), vehicle: saline with Tween-80): 0 of 6

Q: With `COc1cc(OC(=O)Nc2ccc([N+](=O)[O-])cc2OC)ccc1C=O` as the compound, how does the survivor count [1] read?
A: 6 of 6

Q: And the survivor count [2]?
A: 4 of 6

Q: Which survivor count (dose: 300.0 mg/kg/injection, schedule: Q01DX001 (ip), vehicle: saline) does the source give for `CCCC/C=C(/C)C1(CC)C(=O)NC(=O)NC1=O` here?
A: 0 of 6 and 1 of 6

Q: For `O=C(O)COc1nc(Cl)c(Cl)cc1Cl`, which survivor count (dose: 400.0 mg/kg/injection, schedule: Q04DX002 (ip), vehicle: Klucel (hydroxypropylcellulose) (HPC)) is on record?
A: 0 of 3

Q: How did the survivor count (dose: 100.0 mg/kg/injection, schedule: Q04DX002 (ip), vehicle: saline) turn out when `NC(=O)C1C2C=CC(O2)C1C(=O)O` (stereo not drawn) was run?
A: 0 of 3

Q: And the survivor count (dose: 200.0 mg/kg/injection, schedule: Q04DX002 (ip), vehicle: saline)?
A: 0 of 3

Q: And the survivor count (dose: 400.0 mg/kg/injection, schedule: Q04DX002 (ip), vehicle: saline)?
A: 0 of 3

Q: With `CCN(CC)P(=O)(N1CC1)N1CC1` as the compound, how does the T/C (dose: 1.7 mg/kg/injection, schedule: Q01DX Z (ip), vehicle: saline) read?
A: 129 and 138 % of control

Q: And the T/C (dose: 3.0 mg/kg/injection, schedule: Q01DX Z (ip), vehicle: saline)?
A: 130 % of control

Q: And the T/C (dose: 4.0 mg/kg/injection, schedule: Q01DX Z (ip), vehicle: saline)?
A: 133 and 144 % of control

Q: What about the T/C (dose: 6.0 mg/kg/injection, schedule: Q01DX Z (ip), vehicle: saline) of the same compound?
A: 128 and 138 % of control

Q: And the T/C (dose: 9.0 mg/kg/injection, schedule: Q01DX Z (ip), vehicle: saline)?
A: 126 % of control

Q: And the survivor count (dose: 21.0 mg/kg/injection, schedule: Q01DX Z (ip), vehicle: saline)?
A: 4 of 6 and 7 of 7

Q: And the survivor count (dose: 32.0 mg/kg/injection, schedule: Q01DX Z (ip), vehicle: saline)?
A: 3 of 6

Q: What does the source list for `NC(=O)c1ccccc1OC(=O)Nc1cc([N+](=O)[O-])ccc1F`?
A: survivor count [1]: 6 of 6; survivor count [2]: 6 of 6

Q: `C#CCOC(=O)C1C2CCC(O2)C1C(=O)O` (stereo not drawn) was tested. Which survivor count (dose: 5.0 mg/kg/injection, schedule: Q01DX009 (ip), vehicle: saline) did it give?
A: 1 of 6

Q: And the survivor count (dose: 10.0 mg/kg/injection, schedule: Q01DX009 (ip), vehicle: saline with Tween-80)?
A: 0 of 6

Q: What about the survivor count (dose: 20.0 mg/kg/injection, schedule: Q01DX009 (ip), vehicle: saline with Tween-80) of the same compound?
A: 0 of 6

Q: And the survivor count (dose: 40.0 mg/kg/injection, schedule: Q01DX009 (ip), vehicle: saline with Tween-80)?
A: 0 of 6

Q: And the survivor count [3]?
A: 0 of 6

Q: And the survivor count [4]?
A: 0 of 6

Q: And the survivor count [5]?
A: 0 of 6

Q: How did the survivor count (dose: 200.0 mg/kg/injection, schedule: Q01DX001 (ip), vehicle: other) turn out when `CC(=O)Nc1ccc(C(C)(C)c2ccc([N+](=O)[O-])cc2)cc1[N+](=O)[O-]` was run?
A: 4 of 4

Q: For `CC(=O)c1cccc(NC(=S)NC(=O)/C=C/c2ccccc2)c1`, which survivor count [4] is on record?
A: 4 of 6

Q: What about the survivor count [6] of the same compound?
A: 0 of 6

Q: What does the source list for `Nc1nc2ncc(CNc3cnc(C(=O)NC(CCC(=O)O)C(=O)O)nc3)nc2c(=O)[nH]1` (stereo not drawn)?
A: T/C (dose: 75.0 mg/kg/injection, schedule: Q01DX009 (ip), vehicle: alkali diluted with saline): 128 % of control; survivor count (dose: 400.0 mg/kg/injection, schedule: Q01DX001 (ip), vehicle: saline with Tween-80): 0 of 6

Q: What does the source list for `CSc1c(Cl)c(C(Cl)(Cl)Cl)nc2ccccc12`?
A: survivor count [3]: 2 of 3; survivor count [4]: 0 of 3

Q: With `O=C1c2cccc3c(Br)ccc(c23)C(=O)N1C1CCCCCCCCCCC1` as the compound, how does the survivor count [5] read?
A: 3 of 6

Q: `CCOC(=O)c1ncc2cnccn12` was tested. Which survivor count [7] did it give?
A: 4 of 6

Q: Which results are given for `CC1(C)C2CCC1(CS(=O)(=O)O)C(=O)C2.[Ag]` (stereo not drawn)?
A: survivor count (dose: 25.0 mg/kg/injection, schedule: Q01DX009 (ip), vehicle: saline with Tween-80): 4 of 6; survivor count [8]: 1 of 6; survivor count [3]: 0 of 6

Q: Which survivor count (dose: 400.0 mg/kg/injection, schedule: Q01DX001 (ip), vehicle: other) does the source give for `NNC(=O)c1ccccc1O` here?
A: 0 of 4

Q: With `Cc1ccc(O)c(N=O)c1.[Co]` as the compound, how does the survivor count (dose: 400.0 mg/kg/injection, schedule: Q01DX001 (ip), vehicle: saline) read?
A: 2 of 4

Q: With `CC(=O)/C=C/c1ccc([N+](=O)[O-])o1` as the compound, how does the survivor count (dose: 400.0 mg/kg/injection, schedule: Q01DX001 (ip), vehicle: Klucel (hydroxypropylcellulose) (HPC)) read?
A: 1 of 6

Q: `CC(=O)Nc1c(Cl)c(Cl)c2c(c1Cl)Cc1cc(F)ccc1-2` was tested. Which survivor count (dose: 650.0 mg/kg/injection, schedule: Q01DX Z (ip), vehicle: saline) did it give?
A: 2 of 6

Q: Which survivor count [8] does the source give for `C[CH2][Pb]([Br])([CH2]C)[CH2]C` here?
A: 3 of 3

Q: What about the survivor count [3] of the same compound?
A: 0 of 3

Q: And the survivor count (dose: 100.0 mg/kg/injection, schedule: Q04DX002 (ip), vehicle: saline with Tween-80)?
A: 3 of 3

Q: What about the survivor count (dose: 200.0 mg/kg/injection, schedule: Q04DX002 (ip), vehicle: saline with Tween-80) of the same compound?
A: 1 of 3

Q: What about the survivor count (dose: 400.0 mg/kg/injection, schedule: Q04DX002 (ip), vehicle: saline with Tween-80) of the same compound?
A: 0 of 3

Q: How did the survivor count (dose: 12.5 mg/kg/injection, schedule: Q04DX003 (ip), vehicle: Klucel (hydroxypropylcellulose) (HPC)) turn out when `CC(C)S(=O)(=O)/C=C\S(=O)(=O)C(C)C` was run?
A: 0 of 6

Q: And the survivor count (dose: 25.0 mg/kg/injection, schedule: Q04DX003 (ip), vehicle: Klucel (hydroxypropylcellulose) (HPC))?
A: 1 of 6

Q: What about the survivor count (dose: 50.0 mg/kg/injection, schedule: Q04DX003 (ip), vehicle: Klucel (hydroxypropylcellulose) (HPC)) of the same compound?
A: 0 of 6

Q: And the survivor count (dose: 100.0 mg/kg/injection, schedule: Q04DX003 (ip), vehicle: Klucel (hydroxypropylcellulose) (HPC))?
A: 0 of 6

Q: And the survivor count [9]?
A: 0 of 6

Q: What about the survivor count [10] of the same compound?
A: 0 of 6

Q: Which survivor count [9] does the source give for `O=C(CCCN1CC=C(n2c(=O)[nH]c3ccccc32)CC1)c1ccc(F)cc1` here?
A: 2 of 4

Q: And the survivor count [10]?
A: 4 of 4

Q: What does the source list for `COC(=O)c1ccccc1N=NN(C)CC(C)C`?
A: survivor count [4]: 2 of 6; survivor count [11]: 4 of 6

Q: With `N#Cc1ncc(C(Cl)Cl)nc1Cl` as the compound, how does the survivor count [7] read?
A: 2 of 6

Q: Which survivor count (dose: 80.0 mg/kg/injection, schedule: Q01DX001 (ip), vehicle: carboxymethylcellulose (CMC)) does the source give for `c1ccc2c(N=NSc3ncnc4nc[nH]c34)c3ccccc3nc2c1` here?
A: 2 of 4

Q: `Nc1ccc(OCc2ccc(S(=O)(=O)F)c(Cl)c2)c(Cl)c1` was tested. Which survivor count (dose: 400.0 mg/kg/injection, schedule: Q01DX009 (ip), vehicle: other) did it give?
A: 1 of 6

Q: Which survivor count [1] does the source give for `CCCCCCCCCCCC(=O)N/N=C/c1ccccc1OC` here?
A: 6 of 6

Q: What about the survivor count [2] of the same compound?
A: 6 of 6

Q: Which survivor count (dose: 25.0 mg/kg/injection, schedule: Q04DX002 (ip), vehicle: saline with Tween-80) does the source give for `Nc1ncnc2oc(-c3ccccc3)c(-c3ccccc3)c12` here?
A: 3 of 3

Q: Which survivor count (dose: 12.5 mg/kg/injection, schedule: Q04DX003 (ip), vehicle: saline with Tween-80) does the source give for `COc1cccc(C)c1NC1=NCCO1` here?
A: 5 of 6

Q: And the survivor count (dose: 100.0 mg/kg/injection, schedule: Q04DX003 (ip), vehicle: saline with Tween-80)?
A: 0 of 6

Q: And the survivor count [11]?
A: 0 of 6

Q: What about the survivor count [6] of the same compound?
A: 0 of 6

Q: How did the survivor count (dose: 400.0 mg/kg/injection, schedule: Q01DX001 (ip), vehicle: carboxymethylcellulose (CMC)) turn out when `[N-]=[N+]=NC(=O)C1C2CC3C(C2)C31` (stereo not drawn) was run?
A: 4 of 4
